Laboratory results taken from article PMC8355244, “A fragment-based approach identifies an allosteric pocket that impacts malate dehydrogenase activity” (Communications Biology, 2021).
Where “and” joins values, the source holds several entries; their conditions need not be identical. Equal entries are not always repeated. This continues a long series; more values of the same kind are listed elsewhere.

Protein sequences, listed by entry. Tags and fused reporters are not part of them.
UniProt Q6VVP7, entry or part of it: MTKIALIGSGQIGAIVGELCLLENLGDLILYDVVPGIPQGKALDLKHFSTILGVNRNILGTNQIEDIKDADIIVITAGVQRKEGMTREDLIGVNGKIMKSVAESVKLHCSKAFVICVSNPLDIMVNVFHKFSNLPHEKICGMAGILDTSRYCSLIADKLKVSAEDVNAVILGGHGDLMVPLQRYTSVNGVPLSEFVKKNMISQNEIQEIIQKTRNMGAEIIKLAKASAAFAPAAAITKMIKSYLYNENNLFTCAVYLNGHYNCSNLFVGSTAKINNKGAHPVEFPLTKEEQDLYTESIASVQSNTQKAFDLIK

Biological target: T1, PfMDH (Plasmodium falciparum, UniProt Q6VVP7)
T1 construct: The full-length WT PfMDH gene was cloned into pETM-13; made in house; host or cells: E. coli Rosetta 2 (DE3) pLysS
Assay: Thermal shift assay (TSA)
Format: binding
Conditions: for TSA melting curve raw signal: triplicate columns; for TSA melting curve raw fluorescence signal: three replicate columns
Protocol: The TSA experiment was conducted in a BioRad CSX 96 (Biorad). Each reaction consisted of 1 mM of compound (100 mM stock in 100% (v/v) DMSO) and 10 μM PfMDH in 100 mM Na–phosphate buffer pH 7.4, 400 mM NaCl, and 10× Sypro Orange (Invitrogen) for a total volume of 100 μl. Control experiments were performed with 1% (v/v) DMSO. Inflection points were determined using BioRad CFX96™ control software. Generally, a temperature increase of over 1 °C is interpreted as a result of the stabilization of the protein-ligand interaction. On the contrary, a negative shift is considered a destabilization caused by the fragment.

Cc1ccc(-c2csc(N)n2)cc1C [compound 5a]
TSA melting curve raw signal (Temperature 25.5): 4109,14754690857 and 4335,81485549876 and 4113,56049603613 | TSA melting curve raw signal (Temperature 26): 4091,79242828967 and 4310,40279474088 and 4090,64619129944 | TSA melting curve raw signal (Temperature 26.5): 4074,43730967076 and 4284,99073398301 and 4067,73188656275 | TSA melting curve raw signal (Temperature 27): 4057,08219105186 and 4259,57867322513 and 4044,81758182606 | TSA melting curve raw signal (Temperature 27.5): 4039,72707243295 and 4234,16661246725 and 4021,90327708934 | TSA melting curve raw signal (Temperature 28): 4022,37195381405 and 4208,75455170937 and 3998,98897235265 | TSA melting curve raw signal (Temperature 44.5): 4239,15172605318 | TSA melting curve raw signal (Temperature 45): 4248,82252980672 and 4180,40707517298 and 4295,19781633361 | TSA melting curve raw signal (Temperature 45.5): 4308,80692955209 and 4227,02885004101 and 4355,47285891724 | TSA melting curve raw signal (Temperature 46): 4373,25216543506 and 4280,01131774685 and 4419,52494140658 | TSA melting curve raw signal (Temperature 46.5): 4441,98779089746 and 4338,90054761303 and 4487,12433006209 | TSA melting curve raw signal (Temperature 47): 4514,88248655477 and 4404,26532914514 and 4557,96924061725 | TSA melting curve raw signal (Temperature 47.5): 4592,04281656696 and 4476,38641299924 and 4632,39297094883 | TSA melting curve raw signal (Temperature 48): 4673,74526635183 and 4556,17632878294 and 4710,74582268116 | TSA melting curve raw signal (Temperature 48.5): 4760,34240410445 and 4643,13048449794 and 4793,65108888582 | TSA melting curve raw signal (Temperature 49): 4852,47499025856 and 4738,40725357913 and 4881,50819903385 | TSA melting curve raw signal (Temperature 49.5): 4949,59404810981 and 4841,46234366862 and 4974,90738971605 | TSA melting curve raw signal (Temperature 50): 5051,4667385107 and 4952,07808585402 and 5073,48548608683 | TSA melting curve raw signal (Temperature 50.5): 5157,4226483497 and 5069,46914536839 and 5177,48404858169 | TSA melting curve raw signal (Temperature 51): 5267,95599531649 and 5194,20283492665 and 5287,15827915382 | TSA melting curve raw signal (Temperature 51.5): 5383,16904896146 and 5325,43240682749 and 5402,89251949692 | TSA melting curve raw signal (Temperature 52): 5503,69155236101 and 5463,09196162394 and 5524,23646357663 | TSA melting curve raw signal (Temperature 52.5): 5629,82572060057 and 5606,91542964419 and 5651,56517768753 | TSA melting curve raw signal (Temperature 53): 5762,201846172 and 5756,51514590588 and 5784,33818752418 | TSA melting curve raw signal (Temperature 53.5): 5899,78683243396 and 5910,27380542886 and 5921,38100586449 | TSA melting curve raw signal (Temperature 54): 6041,25099411936 and 6066,34642139633 and 6060,49486687824 | TSA melting curve raw signal (Temperature 54.5): 6185,41764751827 and 6222,50846973011 and 6199,89319894017 | TSA melting curve raw signal (Temperature 55): 6330,08312180185 and 6375,48389931662 and 6336,48762736286 | TSA melting curve raw signal (Temperature 55.5): 6472,46690724421 and 6522,36737313559 and 6467,16260655791 | TSA melting curve raw signal (Temperature 56): 6610,271830967 and 6659,9986451875 and 6588,92984546 | TSA melting curve raw signal (Temperature 56.5): 6739,94944120666 and 6785,12951511817 and 6699,01024230288 | TSA melting curve raw signal (Temperature 57): 6858,27947960354 and 6895,60286641402 and 6794,93317175531 | TSA melting curve raw signal (Temperature 57.5): 6962,55440112448 and 6989,60698728704 and 6874,9747655596 | TSA melting curve raw signal (Temperature 58): 7050,25600441948 and 7064,90744842307 and 6937,99061566162 | TSA melting curve raw signal (Temperature 58.5): 7119,54329827173 and 7120,86859609527 and 6982,99248409316 | TSA melting curve raw signal (Temperature 59): 7170,33809283212 and 7157,9912435777 and 7010,83858966031 | TSA melting curve raw signal (Temperature 59.5): 7202,92909998078 and 7176,88734940722 and 7022,8587428136 | TSA melting curve raw signal (Temperature 60): 7218,69413040578 and 7179,54376622874 and 7020,95225978527 | TSA melting curve raw signal (Temperature 60.5): 7219,72213438909 and 7168,99371274419 and 7007,11890541707 | TSA melting curve raw signal (Temperature 61): 7208,44281237741 and 7148,35081015465 and 6984,79246706028 | TSA melting curve raw signal (Temperature 61.5): 7187,79628678274 and 7120,34808508335 and 6956,11439175697 | TSA melting curve raw signal (Temperature 62): 7160,29045584435 and 7087,36786186386 and 6923,04719846659 | TSA melting curve raw signal (Temperature 62.5): 7128,22017974425 and 7051,28787216107 and 6887,19176719123 | TSA melting curve raw signal (Temperature 63): 7093,57296273517 and 7013,65607738955 and 6850,25753359803 | TSA melting curve raw signal (Temperature 63.5): 7057,43122835243 and 6974,72372382632 and 6812,56687018174 | TSA melting curve raw signal (Temperature 64): 7020,60869116906 and 6935,2842454111 and 6774,70360365512 | TSA melting curve raw signal (Temperature 64.5): 6983,30737703911 and 6895,64922967323 and 6736,6283110517 | TSA melting curve raw signal (Temperature 65): 6945,45514823899 and 6856,04765049736 and 6698,92336210102 | TSA melting curve raw fluorescence signal (Temperature 65.5): 6816,06984399857 and 6661,12750154168 | TSA melting curve raw fluorescence signal (Temperature 66): 6868,79196614962 and 6776,54537079108 and 6623,30427835847 | TSA melting curve raw fluorescence signal (Temperature 66.5): 6829,57456616634 and 6737,13807260659 and 6585,71071228662 | TSA melting curve raw fluorescence signal (Temperature 67): 6790,29048516787 and 6698,28027972071 and 6548,78708460424 | TSA melting curve raw fluorescence signal (Temperature 67.5): 6751,30464360266 and 6659,66329633009 and 6511,88081925756 | TSA melting curve raw fluorescence signal (Temperature 68): 6712,27098942751 and 6621,767765955 and 6475,83035297636 | TSA melting curve raw fluorescence signal (Temperature 68.5): 6673,46528290982 and 6584,10053839723 and 6440,70138625582 | TSA melting curve raw fluorescence signal (Temperature 69): 6635,23579718127 and 6546,77549517268 and 6405,96257303639 | TSA melting curve raw fluorescence signal (Temperature 69.5): 6597,30330249868 and 6509,33805652254 and 6371,51342609928 | TSA melting curve raw fluorescence signal (Temperature 70): 6559,32794712733 and 6472,50217794297 and 6337,81620267592 | TSA melting curve raw fluorescence signal (Temperature 70.5): 6521,67229147987 and 6436,14986442836 and 6304,20880884812 | TSA melting curve raw fluorescence signal (Temperature 71): 6483,95403711455 and 6400,42407943148 and 6270,69796640814 | TSA melting curve raw fluorescence signal (Temperature 71.5): 6446,55299781899 and 6365,39020540932 and 6237,53529497521 | TSA melting curve raw fluorescence signal (Temperature 72): 6409,34859672489 and 6331,29679912675 and 6204,8186165163 | TSA melting curve raw fluorescence signal (Temperature 72.5): 6372,53853390467 and 6297,73614072767 and 6172,34644540474 | TSA melting curve raw fluorescence signal (Temperature 73): 6335,87674187408 and 6264,55367580359 and 6140,54484959049 | TSA melting curve raw fluorescence signal (Temperature 90): 5354,08687671595 and 5219,8663595288 | TSA melting curve raw fluorescence signal (Temperature 90.5): 5159,98197137264 and 5327,26814051591 and 5190,56997061565 | TSA melting curve raw fluorescence signal (Temperature 91): 5132,43123959746 and 5300,68513038893 and 5161,66890205614 | TSA melting curve raw fluorescence signal (Temperature 91.5): 5105,47048570762 and 5274,15780377201 and 5133,05062357503 | TSA melting curve raw fluorescence signal (Temperature 92): 5078,52506904552 and 5247,79827791617 and 5104,63584753507 | TSA melting curve raw fluorescence signal (Temperature 92.5): 5050,85810590228 and 5221,48414086959 and 5075,55768207688 | TSA melting curve raw fluorescence signal (Temperature 93): 5023,31389091435 and 5194,70816789367 and 5046,189529136 | TSA melting curve raw fluorescence signal (Temperature 93.5): 4995,49712748815 and 5167,80306736994 and 5016,38286515834 | TSA melting curve raw fluorescence signal (Temperature 94): 4967,45404082663 and 5140,38714632172 and 4986,56787422172 | TSA melting curve raw fluorescence signal (Temperature 94.5): 4939,51140926284 and 5112,90610420524 and 4956,49952228776 | TSA melting curve raw fluorescence signal (Temperature 95): 4911,46428466902 and 5084,16940925847 and 4927,08676586038
